This passage reports binding results from publication PMC6506827.

Results are given in words; binding and its absence hold for the method and conditions named.

For this assay, the target named is PghL hydrolase from Bacillus subtilis (B. subtilis) (UniProt O31815). Briefly: SEC; analytical size exclusion chromatography, room temperature, protein at 0.05 mg/mL; both purified.

B1: PghL hydrolase from Bacillus subtilis (enzyme, UniProt O31815 47-252)
chain: SSIYAEDVYQNFEELKNNEDPSDYGVVTKETGSPVLVLAIHGGGIEGGTSEVARELSKEYSMYLFEGLKSAGNSVLHITSTHFDEPRALKMTGNHEYVISLHGYAEEDQQIEVGGTDRVRAADLVEKLQHAGFPAVLLNMDHPHAGVSPNNIANKSKTGLSIQIEMSTGFRKSLFGIFSLKSRAVTQNERFYEFTEVMFRFLKNSY
On to B1, for which the binding entry was “no binding (tested: 0.05 mg·mL^−1)”.
